Measurements: PMC6736995, “Insights Into Enhanced Complement Activation by Structures of Properdin and Its Complex With the C-Terminal Domain of C3b” (Frontiers in Immunology, 2019)
No constants are given. Whether binding was seen depends on the method and setting. For some of these results: Binding seen in cells or lysates may run through a third protein. Some results given as binding are weak or reduced against the parent protein; the word gives no strength.

Sequences of proteins named here, by UniProt entry; tags and fusion partners are left off. A change or cut given only in a name is not applied to a line headed by its entry. A line that says so, or that is headed by a name, gives the form on record, which may keep a tag or linker.
P^456, C-terminal fragment of properdin (res. 256-469) (P27918, form named): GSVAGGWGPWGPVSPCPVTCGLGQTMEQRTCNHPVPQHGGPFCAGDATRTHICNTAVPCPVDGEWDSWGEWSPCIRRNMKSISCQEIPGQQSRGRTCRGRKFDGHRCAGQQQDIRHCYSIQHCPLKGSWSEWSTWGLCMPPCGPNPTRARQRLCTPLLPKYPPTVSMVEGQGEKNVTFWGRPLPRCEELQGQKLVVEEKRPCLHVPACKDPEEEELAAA
P^N1, N-terminal fragment of properdin (res. 28-132) (P27918, form named): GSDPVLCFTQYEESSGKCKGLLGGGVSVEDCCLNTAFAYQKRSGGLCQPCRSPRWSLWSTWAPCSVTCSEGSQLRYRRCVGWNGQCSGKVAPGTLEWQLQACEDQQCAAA
P^N123, N-terminal fragment of properdin (res. 28-255) (P27918, form named): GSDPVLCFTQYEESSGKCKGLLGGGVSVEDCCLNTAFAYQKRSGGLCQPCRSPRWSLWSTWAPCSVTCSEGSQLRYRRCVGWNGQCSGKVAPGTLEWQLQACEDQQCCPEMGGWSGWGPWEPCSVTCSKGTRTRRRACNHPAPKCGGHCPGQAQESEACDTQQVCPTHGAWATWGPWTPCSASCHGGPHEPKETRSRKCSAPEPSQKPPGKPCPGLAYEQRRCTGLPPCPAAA

Legend:
[1] = molecular target: P^456, C-terminal fragment of properdin (res. 256-469) (human) (UniProt P27918); assay: pull-down; large-scale (1 L) co-expression in HEK293-EBNA, P^456 with C-terminal 6xHis-tag, no tag on the N-terminal fragment; Ni-Sepharose Excel (IMAC) from the supernatant, washes with 500 mM NaCl
[2] = molecular target: P^456, C-terminal fragment of properdin (res. 256-469) (human) (UniProt P27918); assay: crystal structure; co-expressed and co-purified P^N1/456 (0.2 M potassium sulfate, 20% PEG 3350; 2.0-2.9 Å) and P^N12/456 (100 mM sodium citrate pH 5.5, 20% PEG 3000; 2.5-3.9 Å), 18°C; both purified
[3] = molecular target: P^456, C-terminal fragment of properdin (res. 256-469) (human) (UniProt P27918); assay: pull-down; small-scale (4 ml) co-expression of N- and C-terminal fragments in HEK293-EBNA, one of the two with a 6x-His tag; Ni-Sepharose Excel from the supernatant, washes with 500 mM NaCl and 10 mM imidazole; no further purification

Row | Substance | binding [1] | binding [2] | binding [3]
1 | P^N1, N-terminal fragment of properdin (res. 28-132) (from UniProt P27918 28-132) (domain or fragment) | binds | binds | binds
2 | P^N12, N-terminal fragment of properdin (res. 28-191) (from UniProt P27918 28-191) (domain or fragment) | binds | binds | binds
3 | P^N123, N-terminal fragment of properdin (res. 28-255) (from UniProt P27918 28-255) (domain or fragment) | – | – | binds
